The text below walks through data of publication PMC4452267.

This data set deals with T1, PpsR (Rubrivivax gelatinosus) (UniProt I0HUJ5).
T1 sequence: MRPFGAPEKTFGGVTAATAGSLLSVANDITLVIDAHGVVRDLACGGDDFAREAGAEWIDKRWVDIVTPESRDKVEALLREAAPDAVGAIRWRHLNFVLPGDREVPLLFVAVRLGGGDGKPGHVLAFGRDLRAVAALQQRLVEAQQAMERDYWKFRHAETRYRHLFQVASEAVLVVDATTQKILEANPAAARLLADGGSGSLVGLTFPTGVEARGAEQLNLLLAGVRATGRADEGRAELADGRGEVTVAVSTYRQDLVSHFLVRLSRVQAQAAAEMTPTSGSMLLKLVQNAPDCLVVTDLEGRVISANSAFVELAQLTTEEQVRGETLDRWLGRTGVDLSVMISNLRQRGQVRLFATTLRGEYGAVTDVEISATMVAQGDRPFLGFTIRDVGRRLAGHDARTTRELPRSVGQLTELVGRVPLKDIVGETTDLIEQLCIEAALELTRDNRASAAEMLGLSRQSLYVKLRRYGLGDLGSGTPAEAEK
The data set can be described thus: EMSA. The following applies: EMSA: 5 nM probe, 25 mM Tris-HCl pH 8.0, 100 mM NaCl, 2 mM MgCl2, 6% glycerol, 50 ug/ml heparin, room temperature 30 min (5 mM DTT if reduced), recombinant protein, residues 1-484, protein details: SUMO (His) tag cleaved, tag-less, label: Cy5, probe letters rebuilt from the primers and the genome, part of a longer molecule; for half-maximal binding: EC50.

Construct, isoform or probe ends are uncertain for at least one entry.

“ACCAGTTTCCGTGCTCGACCCGCACGTGGGTTGGCTTCTGTAGCCCTCGGATTTCTCCCTACCGACATGTGTAACGCTACGCTGACAGGGTGGGGGCGTCAACATGTCGTGACACCCCCGCAACGCTGAATGTGTCGCGGCTCTGATCTATGACAAATTGCCGGGGTCCGGCGGGCCTCGGGAGCTCTG (double strand) [pucB promoter EMSA probe]”: for the setting “H2O2-treated, similar to untreated”, the binding result is “binds”. The half-maximal binding (oxidized (untreated)) amounted to 49.8 nM and the half-maximal binding (reduced, 5 mM DTT) was found to be 63.3 nM.
With “CATCGGAGGGAACCAGGTGATCGGTTTGAGCAACTCCGCTACAGCGGACAACGCGGGCCTTGCCATGGGGCTGAATCTTGCGCTTGACAAAACAGAGCGTCAATTGTCGTTGACACAATCCCTGCCTTAGGACAAGCTCGACGGATGCTGATGAAGTCGGATGCCGCAGCCCCGCGCGCGGCCGGAAAGCAGGAT (double strand) [crtI promoter EMSA probe]”, the half-maximal binding amounted to 80.5 nM (oxidized (untreated)) and 86.5 nM (reduced, 5 mM DTT).
